Reference: patent US7521438B1, “Combination of loteprednol and β2-adrenoceptor agonists” (MEDA Pharma GmbH & Co. KG, priority 1999, dated 2009)
For at least one compound, name, drawing or mass did not settle the structure.

System: eosinophilic granulocytes in the lung
Assay: Late-phase eosinophilia in actively sensitized guinea pigs, pulmonary lavage 24 h after allergen provocation
Assay type: in vivo
Settings: 0.001 mg/kg intrapulmonarily, guinea pig; listed as loteprednol

Compound: CCOC(=O)O[C@]1(C(=O)OCCl)CC[C@H]2[C@@H]3CCC4=CC(=O)C=C[C@]4(C)[C@H]3[C@@H](O)C[C@@]21C [Loteprednol, loteprednol]
- Inhibition of eosinophilia: no inhibition or a marginal inhibition
